Test results: US20090053745A1
No constants are given. Whether binding was seen depends on the method and setting. In cells and extracts the contact can be indirect. Some results given as binding are weak or reduced against the parent protein; the word gives no strength. Sequences can lack the tags named with a protein.

Key:
GST-cypin [1] = target: T1, GST-cypin (UniProt Q9WTT6); assay: competition co-immunoprecipitation (legend of FIG. 7)
T1 sequence (looked up): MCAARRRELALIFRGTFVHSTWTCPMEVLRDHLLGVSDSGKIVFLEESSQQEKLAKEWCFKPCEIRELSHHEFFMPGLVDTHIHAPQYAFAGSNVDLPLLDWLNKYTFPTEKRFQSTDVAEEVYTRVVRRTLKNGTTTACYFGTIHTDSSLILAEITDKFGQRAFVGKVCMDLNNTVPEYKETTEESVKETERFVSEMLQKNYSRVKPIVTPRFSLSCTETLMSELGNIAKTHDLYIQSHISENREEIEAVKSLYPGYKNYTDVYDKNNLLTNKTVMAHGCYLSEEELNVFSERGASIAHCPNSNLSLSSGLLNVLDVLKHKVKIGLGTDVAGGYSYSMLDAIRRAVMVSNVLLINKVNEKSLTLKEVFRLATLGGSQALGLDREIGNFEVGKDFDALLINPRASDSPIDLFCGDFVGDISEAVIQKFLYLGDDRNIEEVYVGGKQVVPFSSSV

GST-cypin [2] = target: T1, GST-cypin; assay: competition co-immunoprecipitation with anti-tubulin antibody, purified proteins
GST-cypin [3] = target: T1, GST-cypin; assay: competition co-immunoprecipitation of purified cypin (2 µM) and tubulin heterodimers (7 µM) with GST-Snapin added; displaced ligand: tubulin heterodimers; the strip is labelled α-Tubulin on the sheet (the text: IP with anti-tubulin, blot for cypin)

Measured: binding

B1: GST-snapin (entire 136 amino acids) (protein, not shown: a dimerising Fc or GST)
chain: MAGAGSAAVSGAGTPVAGPTGRDLFAEGLLEFLRPAVQQLDSHVHAVRESQVELREQIDNLATELCRINEDQKVALDLDPYVKKLLNARRRVVLVNNILQNAQERLRRLNHSVAKETARRRAMLDSGIYPPGSPGK
binds: all assays above
